Measurements as given in publication PMC12491784.
Construct, isoform or probe ends are uncertain for at least one entry. Results from cells or extracts need not show a direct contact. Negatives hold for the conditions tested. For part of these data: At least one verdict was read from the data and is not stated in words by the source.

Chains of the proteins cited; added tags and fusions are not shown. Lines headed by an entry give the natural chain unless they say otherwise; changes in a name come on top.
UniProt Q96DH6: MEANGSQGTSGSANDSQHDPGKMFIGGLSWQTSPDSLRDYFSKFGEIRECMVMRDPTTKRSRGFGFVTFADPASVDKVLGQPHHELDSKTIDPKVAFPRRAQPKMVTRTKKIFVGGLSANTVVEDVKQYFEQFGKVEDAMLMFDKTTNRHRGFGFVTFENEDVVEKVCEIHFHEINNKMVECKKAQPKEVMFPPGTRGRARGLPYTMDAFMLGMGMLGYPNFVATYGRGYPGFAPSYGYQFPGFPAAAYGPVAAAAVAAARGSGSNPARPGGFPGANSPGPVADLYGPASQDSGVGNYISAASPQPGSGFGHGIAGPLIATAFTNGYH
UniProt P11940, whole entry: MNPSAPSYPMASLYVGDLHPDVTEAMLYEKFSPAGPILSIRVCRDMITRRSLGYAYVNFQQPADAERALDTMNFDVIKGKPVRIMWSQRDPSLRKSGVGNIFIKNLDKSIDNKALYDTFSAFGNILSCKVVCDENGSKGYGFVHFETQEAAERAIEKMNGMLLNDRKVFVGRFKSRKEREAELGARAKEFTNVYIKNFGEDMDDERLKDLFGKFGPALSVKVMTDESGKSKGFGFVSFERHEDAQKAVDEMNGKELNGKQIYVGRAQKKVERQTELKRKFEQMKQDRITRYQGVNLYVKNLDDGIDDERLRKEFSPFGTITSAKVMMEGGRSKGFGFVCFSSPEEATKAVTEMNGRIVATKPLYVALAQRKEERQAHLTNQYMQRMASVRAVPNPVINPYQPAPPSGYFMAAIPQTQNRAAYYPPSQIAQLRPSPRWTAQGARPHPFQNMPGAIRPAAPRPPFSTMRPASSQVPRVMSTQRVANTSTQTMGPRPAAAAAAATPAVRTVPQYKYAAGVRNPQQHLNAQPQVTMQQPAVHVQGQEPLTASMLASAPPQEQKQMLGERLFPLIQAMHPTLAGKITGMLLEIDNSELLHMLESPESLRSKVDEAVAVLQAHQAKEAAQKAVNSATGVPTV

Experiments:
[1] = biological target: MSI2 (Musashi-2), endogenous, PANC-1 lysate (UniProt Q96DH6); experiment: pull-down; details: RNA pull-down: 100 pmol biotinylated probe on streptavidin beads, 4 C 4 h, high-stringency wash 20 mM Tris-HCl pH 7.5, 1 mM EDTA, 450 mM NaCl, protein in an extract, label: 5' biotin
[2] = biological target: PABPC1, endogenous, PANC-1 lysate (UniProt P11940); experiment: pull-down; details: RNA pull-down: 100 pmol biotinylated probe on streptavidin beads, 4 C 4 h, high-stringency wash 20 mM Tris-HCl pH 7.5, 1 mM EDTA, 450 mM NaCl, protein in an extract, label: 5' biotin

UCCUAUCAAAUUAGUAAACCAAAG [P2 RNA probe]
binding result [1]: binds
binding result [2]: no binding

GUGUGCUCCAAACUUUAUCAAAAG [P1-mut RNA probe]
binding result [1]: no binding

UCCUAUCAAAUAACUAAACCAAAG [P2-mut RNA probe]
binding result [1]: no binding

GUGUGCUCCAUAGUUUAUCAAAAG [P1 RNA probe]
binding result [1]: binds
binding result [2]: no binding
